{"source": "patent US20240181000A1", "about": "“LGG-DERIVED PEPTIDES AND METHODS OF USE THEREOF” (Ohio State Innovation Foundation, priority 2021, published 2024)", "system": "cecal microbiota", "test": "Cecal microbiome analysis (peptides, APEC infected)", "format": "in vivo, chickens", "details": "50 mg/kg, compared to PC", "protocol": "Cecal microbiome analysis: To investigate the impact of peptides (P1, P2, and P3) treatment (50 mg/kg and 100 mg/kg) on cecal microbiome of chickens, 16S rRNA based metagenomic study was conducted as previously described. DNA was extracted from 0.2 g of cecal contents using PureLink™ Microbiome DNA Purification Kit (Thermofisher Scientific) and treated with RNase A (2 μL of 100 mg/mL solution per sample; Qiagen) to remove the RNA. DNA quantity and quality were measured using NanoDrop 2000c Spectrophotometer (Thermo Fisher Scientific). The extracted DNA samples were subjected to 16S rRNA V4-V5 sequencing at molecular and cellular imaging center (MCIC), Ohio Agricultural Research and Development Center (OARDC) (mcic.osu.edu/genomics/illumina-sequencing). Amplicon libraries were prepared using IFU KAPA HiFi HotStart ReadyMixPCR Kit (Roche) and PCR clean-up was performed using Agencourt AMPure XP beads (BECKMAN COULTER Life Sciences). Nextera XT DNA Library Preparation Kit (Illumina) was used to generate Illumina library and sequencing was performed using Illumina MiSeq platform generating paired end 300-bp reads.\nFor the metagenomic analysis, QIIME (Quantitative Insights into Microbial Ecology) 2 bioinformatics platform (qiime2.org/) was used. Quality control of the raw reads was performed using FastQC 0.11.8 (Babraham Bioinformatics). Trimmomatic-0.33 was used to trim the adaptor and other illumina-specific sequences (www.usadellab.org/cms/?page=trimmomatic). The trimmed sequences (fastq.gz) were then imported into the QIIME 2 as a manifest file format (PairedEndManifestPhred33V2). The feature table construction and additional filtering of the sequences was performed using DADA2. The taxonomic analysis was performed using Naive Bayes classifiers trained on the Silva 132 99% OTUs (silva-132-99-nb-classifier.qza) database. The phylogenetic diversity was analyzed using align-to-tree-mafft-fasttree pipeline and alpha ([…]) were analyzed using core-metrics-phylogenetic pipeline (docs.qiime2.org/2019.7/tutorials/moving-pictures/). The statistical difference (P<0.05) in the taxonomic composition between the peptides treated, PC, and NC groups was determined using Mann-Whitney U test. The alpha and beta diversity were analyzed using Kruskal-Wallis and PERMANOVA tests (P<0.05), respectively.", "note": "Some results were stated once for a whole list of compounds, not compound by compound. No end group written: not given here.", "data": [{"substance": "PDENK [Peptide P2, PDENK]", "values": [{"measurement": "Relative abundance Erysipelotrichia", "result": "11.82% to 3.83%"}]}]}
